Assay results from publication PMC7810865.
Results are given in words; binding and its absence hold for the method and conditions named. In cells and extracts the contact can be indirect. A yes stands for co-enrichment or nearness to the bait. Other partners may have been found.

Protein sequences, listed by entry. Tags and fused reporters are not part of them.
UniProt Q02548: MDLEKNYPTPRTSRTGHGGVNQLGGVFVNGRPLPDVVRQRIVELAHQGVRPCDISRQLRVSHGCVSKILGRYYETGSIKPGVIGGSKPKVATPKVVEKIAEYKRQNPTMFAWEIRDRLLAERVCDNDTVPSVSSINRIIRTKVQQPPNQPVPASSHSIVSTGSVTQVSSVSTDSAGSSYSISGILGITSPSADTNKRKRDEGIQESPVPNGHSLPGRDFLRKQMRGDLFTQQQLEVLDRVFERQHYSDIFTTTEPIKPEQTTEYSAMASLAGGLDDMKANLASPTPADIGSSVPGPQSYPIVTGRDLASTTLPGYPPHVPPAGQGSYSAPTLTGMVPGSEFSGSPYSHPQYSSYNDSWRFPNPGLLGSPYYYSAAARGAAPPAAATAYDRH
UniProt Q15291: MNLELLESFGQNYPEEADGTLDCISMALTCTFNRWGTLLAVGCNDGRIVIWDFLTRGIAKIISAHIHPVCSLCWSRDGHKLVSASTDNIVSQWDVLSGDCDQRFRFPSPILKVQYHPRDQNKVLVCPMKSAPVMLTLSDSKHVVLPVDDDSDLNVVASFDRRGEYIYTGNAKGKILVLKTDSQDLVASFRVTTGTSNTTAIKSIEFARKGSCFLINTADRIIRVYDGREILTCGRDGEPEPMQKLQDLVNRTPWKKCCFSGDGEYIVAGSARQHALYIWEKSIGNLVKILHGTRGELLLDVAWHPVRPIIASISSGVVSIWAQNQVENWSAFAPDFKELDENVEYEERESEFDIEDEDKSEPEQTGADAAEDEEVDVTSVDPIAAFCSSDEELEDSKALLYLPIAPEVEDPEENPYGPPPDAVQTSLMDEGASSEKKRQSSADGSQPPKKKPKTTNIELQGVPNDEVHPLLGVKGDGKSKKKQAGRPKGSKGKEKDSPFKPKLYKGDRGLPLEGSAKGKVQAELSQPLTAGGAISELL
UniProt Q9UBL3: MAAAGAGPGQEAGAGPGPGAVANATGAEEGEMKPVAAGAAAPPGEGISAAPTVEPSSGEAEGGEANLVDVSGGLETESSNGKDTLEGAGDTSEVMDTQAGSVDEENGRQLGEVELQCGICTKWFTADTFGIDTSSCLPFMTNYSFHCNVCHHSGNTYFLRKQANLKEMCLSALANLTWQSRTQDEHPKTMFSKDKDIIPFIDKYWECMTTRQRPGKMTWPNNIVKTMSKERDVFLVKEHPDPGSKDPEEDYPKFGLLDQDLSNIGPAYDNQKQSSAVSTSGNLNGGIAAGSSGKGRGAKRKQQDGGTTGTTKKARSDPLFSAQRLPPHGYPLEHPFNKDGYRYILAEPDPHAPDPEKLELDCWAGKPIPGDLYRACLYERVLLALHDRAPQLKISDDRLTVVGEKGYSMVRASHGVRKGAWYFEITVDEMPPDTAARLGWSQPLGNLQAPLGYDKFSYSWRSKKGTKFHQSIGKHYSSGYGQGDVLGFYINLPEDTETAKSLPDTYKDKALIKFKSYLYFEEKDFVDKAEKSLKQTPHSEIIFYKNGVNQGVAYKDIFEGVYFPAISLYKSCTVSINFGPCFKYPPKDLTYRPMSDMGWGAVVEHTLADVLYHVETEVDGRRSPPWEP
UniProt Q9C005: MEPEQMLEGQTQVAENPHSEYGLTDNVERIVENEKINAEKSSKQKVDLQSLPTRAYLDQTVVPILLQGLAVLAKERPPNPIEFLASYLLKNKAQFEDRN
UniProt Q03164: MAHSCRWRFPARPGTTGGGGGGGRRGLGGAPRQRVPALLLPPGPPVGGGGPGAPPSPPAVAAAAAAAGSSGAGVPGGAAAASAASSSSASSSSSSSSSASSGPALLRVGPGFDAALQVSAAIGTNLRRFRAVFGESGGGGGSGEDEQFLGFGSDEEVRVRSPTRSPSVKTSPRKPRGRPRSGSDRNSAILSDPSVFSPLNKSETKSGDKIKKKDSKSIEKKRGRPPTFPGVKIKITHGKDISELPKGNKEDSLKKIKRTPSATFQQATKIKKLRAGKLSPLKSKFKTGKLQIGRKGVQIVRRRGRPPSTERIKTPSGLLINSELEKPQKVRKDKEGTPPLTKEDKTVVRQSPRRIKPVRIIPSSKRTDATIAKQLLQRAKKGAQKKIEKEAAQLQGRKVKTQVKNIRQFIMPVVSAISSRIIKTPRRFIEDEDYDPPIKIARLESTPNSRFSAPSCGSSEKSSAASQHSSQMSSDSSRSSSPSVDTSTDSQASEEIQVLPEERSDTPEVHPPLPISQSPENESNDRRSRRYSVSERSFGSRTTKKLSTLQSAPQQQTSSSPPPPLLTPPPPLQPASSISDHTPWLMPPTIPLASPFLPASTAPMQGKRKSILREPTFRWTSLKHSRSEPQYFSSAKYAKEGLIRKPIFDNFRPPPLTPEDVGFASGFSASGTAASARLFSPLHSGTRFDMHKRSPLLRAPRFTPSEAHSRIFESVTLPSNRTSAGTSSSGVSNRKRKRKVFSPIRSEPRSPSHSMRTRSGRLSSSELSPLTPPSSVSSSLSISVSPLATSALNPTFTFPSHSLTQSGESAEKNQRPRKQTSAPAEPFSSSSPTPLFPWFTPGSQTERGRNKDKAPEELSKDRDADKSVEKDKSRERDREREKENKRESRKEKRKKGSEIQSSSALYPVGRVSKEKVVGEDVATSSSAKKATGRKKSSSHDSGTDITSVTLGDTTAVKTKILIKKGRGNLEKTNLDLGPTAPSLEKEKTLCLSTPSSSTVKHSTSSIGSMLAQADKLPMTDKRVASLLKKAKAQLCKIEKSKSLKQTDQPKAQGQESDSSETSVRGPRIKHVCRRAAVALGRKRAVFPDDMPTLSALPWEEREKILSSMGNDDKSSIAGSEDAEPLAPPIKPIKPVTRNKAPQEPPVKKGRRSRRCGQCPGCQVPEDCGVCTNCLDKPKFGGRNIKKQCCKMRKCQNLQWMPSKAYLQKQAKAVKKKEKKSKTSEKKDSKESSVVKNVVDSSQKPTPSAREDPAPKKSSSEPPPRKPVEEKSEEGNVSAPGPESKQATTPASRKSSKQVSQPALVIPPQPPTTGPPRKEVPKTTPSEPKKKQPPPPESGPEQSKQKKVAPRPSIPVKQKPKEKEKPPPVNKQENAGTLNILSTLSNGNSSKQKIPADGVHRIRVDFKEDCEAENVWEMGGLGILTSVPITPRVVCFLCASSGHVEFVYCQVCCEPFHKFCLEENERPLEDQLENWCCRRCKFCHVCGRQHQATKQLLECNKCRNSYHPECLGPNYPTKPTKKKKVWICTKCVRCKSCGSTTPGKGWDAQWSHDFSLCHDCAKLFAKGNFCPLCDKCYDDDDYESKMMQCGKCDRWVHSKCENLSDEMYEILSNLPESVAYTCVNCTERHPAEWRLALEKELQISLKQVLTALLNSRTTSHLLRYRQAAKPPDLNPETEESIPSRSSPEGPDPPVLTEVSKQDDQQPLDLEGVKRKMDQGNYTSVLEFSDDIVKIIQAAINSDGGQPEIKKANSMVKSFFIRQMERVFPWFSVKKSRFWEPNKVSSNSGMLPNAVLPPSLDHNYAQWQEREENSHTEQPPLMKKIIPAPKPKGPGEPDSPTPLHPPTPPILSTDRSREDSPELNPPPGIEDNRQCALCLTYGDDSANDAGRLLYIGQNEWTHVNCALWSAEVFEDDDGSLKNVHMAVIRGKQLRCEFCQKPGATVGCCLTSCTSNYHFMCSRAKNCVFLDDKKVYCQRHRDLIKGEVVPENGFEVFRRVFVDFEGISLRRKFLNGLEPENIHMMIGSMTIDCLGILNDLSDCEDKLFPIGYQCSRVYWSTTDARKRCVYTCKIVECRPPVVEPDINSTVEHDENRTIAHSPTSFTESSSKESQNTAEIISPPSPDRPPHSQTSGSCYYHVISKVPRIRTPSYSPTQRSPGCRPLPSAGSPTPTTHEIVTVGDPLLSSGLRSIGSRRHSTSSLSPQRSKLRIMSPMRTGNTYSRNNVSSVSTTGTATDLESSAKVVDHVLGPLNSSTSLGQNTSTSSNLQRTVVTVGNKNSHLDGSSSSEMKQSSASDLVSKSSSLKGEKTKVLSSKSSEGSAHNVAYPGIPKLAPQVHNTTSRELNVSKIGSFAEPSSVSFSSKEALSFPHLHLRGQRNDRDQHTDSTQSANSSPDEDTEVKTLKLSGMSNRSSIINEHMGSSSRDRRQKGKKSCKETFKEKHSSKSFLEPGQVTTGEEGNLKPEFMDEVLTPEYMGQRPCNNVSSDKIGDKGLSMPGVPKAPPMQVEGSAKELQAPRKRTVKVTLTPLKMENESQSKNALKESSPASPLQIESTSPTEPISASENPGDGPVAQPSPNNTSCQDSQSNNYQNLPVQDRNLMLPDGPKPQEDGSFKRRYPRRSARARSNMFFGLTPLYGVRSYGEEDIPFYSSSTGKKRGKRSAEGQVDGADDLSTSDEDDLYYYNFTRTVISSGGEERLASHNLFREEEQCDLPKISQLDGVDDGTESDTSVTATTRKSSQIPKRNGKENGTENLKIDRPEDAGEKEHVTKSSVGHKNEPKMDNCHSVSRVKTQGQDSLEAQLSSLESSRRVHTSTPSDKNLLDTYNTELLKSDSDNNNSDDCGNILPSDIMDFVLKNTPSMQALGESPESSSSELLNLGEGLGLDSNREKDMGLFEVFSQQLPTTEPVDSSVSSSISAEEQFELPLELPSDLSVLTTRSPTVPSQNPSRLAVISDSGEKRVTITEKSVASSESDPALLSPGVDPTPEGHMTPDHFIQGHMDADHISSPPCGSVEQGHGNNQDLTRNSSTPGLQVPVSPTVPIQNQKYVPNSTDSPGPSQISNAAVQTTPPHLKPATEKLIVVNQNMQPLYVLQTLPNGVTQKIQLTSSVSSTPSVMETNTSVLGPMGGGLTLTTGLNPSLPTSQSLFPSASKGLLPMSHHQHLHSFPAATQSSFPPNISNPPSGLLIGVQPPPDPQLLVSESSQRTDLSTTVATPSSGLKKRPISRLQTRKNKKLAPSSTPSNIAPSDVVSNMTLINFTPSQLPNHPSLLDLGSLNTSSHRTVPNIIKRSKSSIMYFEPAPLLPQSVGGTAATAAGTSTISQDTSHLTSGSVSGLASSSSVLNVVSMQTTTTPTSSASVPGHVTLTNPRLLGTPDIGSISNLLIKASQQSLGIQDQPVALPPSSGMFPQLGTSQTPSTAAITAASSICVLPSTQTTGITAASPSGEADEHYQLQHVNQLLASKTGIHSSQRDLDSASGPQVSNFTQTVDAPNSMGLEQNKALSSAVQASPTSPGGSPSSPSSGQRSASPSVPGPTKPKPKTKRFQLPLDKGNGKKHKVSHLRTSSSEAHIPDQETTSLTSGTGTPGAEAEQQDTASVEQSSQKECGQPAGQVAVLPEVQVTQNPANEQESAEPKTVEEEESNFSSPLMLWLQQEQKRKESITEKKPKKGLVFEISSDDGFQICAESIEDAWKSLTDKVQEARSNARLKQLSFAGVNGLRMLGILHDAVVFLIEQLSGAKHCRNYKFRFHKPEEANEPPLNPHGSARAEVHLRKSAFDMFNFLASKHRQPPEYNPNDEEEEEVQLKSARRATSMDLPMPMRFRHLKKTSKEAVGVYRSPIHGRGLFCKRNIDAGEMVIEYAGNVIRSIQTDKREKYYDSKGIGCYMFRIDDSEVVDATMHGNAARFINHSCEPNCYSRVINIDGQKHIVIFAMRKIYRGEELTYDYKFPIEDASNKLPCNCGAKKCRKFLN
UniProt O00255: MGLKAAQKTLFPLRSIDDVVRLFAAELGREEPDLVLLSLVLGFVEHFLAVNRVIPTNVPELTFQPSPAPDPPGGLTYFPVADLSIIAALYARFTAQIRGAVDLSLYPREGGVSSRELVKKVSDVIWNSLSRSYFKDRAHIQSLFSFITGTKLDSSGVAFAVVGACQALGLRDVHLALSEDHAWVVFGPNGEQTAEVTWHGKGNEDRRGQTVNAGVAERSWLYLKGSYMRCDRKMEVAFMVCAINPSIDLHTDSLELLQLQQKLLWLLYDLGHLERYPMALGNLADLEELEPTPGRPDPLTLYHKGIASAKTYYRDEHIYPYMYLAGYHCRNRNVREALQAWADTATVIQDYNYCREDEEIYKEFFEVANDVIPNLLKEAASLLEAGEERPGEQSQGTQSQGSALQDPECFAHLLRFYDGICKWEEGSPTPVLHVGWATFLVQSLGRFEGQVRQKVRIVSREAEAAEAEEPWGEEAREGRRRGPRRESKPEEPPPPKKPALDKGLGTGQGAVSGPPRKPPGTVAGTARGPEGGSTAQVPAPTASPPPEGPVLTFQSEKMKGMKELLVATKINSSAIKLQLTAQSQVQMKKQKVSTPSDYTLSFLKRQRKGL

Columns and labels:
[1] = molecular target: PAX5 (human (endogenous in KIS-1, REH, GM12878, NALM6 and RAJI)) (UniProt Q02548); assay: affinity purification with mass spectrometry; anti-PAX5 (sc-1974) co-IP from KIS-1 + EBF1 nuclear extracts (lysed with Benzonase), cells with or without DOX induction of EBF1 for 48 h; normal goat IgG control; gel bands, trypsin, nanoLC-MS/MS; two replicates
[2] = molecular target: PAX5 (human (endogenous in KIS-1, REH, GM12878, NALM6 and RAJI)) (UniProt Q02548); assay: affinity purification with mass spectrometry; PAX5 co-IP from NALM6 cells, mass spectrometry; two replicates
[3] = molecular target: PAX5 (human (endogenous in KIS-1, REH, GM12878, NALM6 and RAJI)) (UniProt Q02548); assay: affinity purification with mass spectrometry; PAX5 co-IP from RAJI cells, mass spectrometry; two replicates

Substance | binding [1] | binding [2] | binding [3]
TAF6 (from UniProt P49848 1-677) | binds |  | 
RBBP5 (from UniProt Q15291 1-538) | binds | binds | binds
ASH2L (from UniProt Q9UBL3 1-628) | binds |  | binds

The remaining lines, values ahead:

binding [1] | binding [2] | binding [3] | Substance
binds |  |  | DPY30 (from UniProt Q9C005 1-99)
binds | binds | binds | KMT2A, the catalytic component of MLL (from UniProt Q03164 1-3969)
binds |  | binds | MEN1 (from UniProt O00255 1-610)
